Data: the supplement of paper PMC3741180, “A Novel High Throughput Biochemical Assay to Evaluate the HuR Protein-RNA Complex Formation” (PLoS ONE, 2013)
This is one part of the list. Repeats in this data set agree poorly, so a single value says little.

By UniProt entry, the sequences of proteins in these tests, tags left out.
UniProt Q15717, whole entry: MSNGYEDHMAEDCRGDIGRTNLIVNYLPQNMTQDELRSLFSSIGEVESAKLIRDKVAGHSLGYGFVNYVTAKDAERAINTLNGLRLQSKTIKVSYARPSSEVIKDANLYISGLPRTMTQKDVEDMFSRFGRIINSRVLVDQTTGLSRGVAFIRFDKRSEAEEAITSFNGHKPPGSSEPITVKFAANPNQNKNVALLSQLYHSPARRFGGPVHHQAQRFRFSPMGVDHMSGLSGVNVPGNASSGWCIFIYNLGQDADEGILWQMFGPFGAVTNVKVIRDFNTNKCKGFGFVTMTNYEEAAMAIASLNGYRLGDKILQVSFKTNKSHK

Each compound was assayed against HuR (ELAVL1) - TNFalpha ARE RNA complex (UniProt Q15717) (assay: AlphaScreen HuR-RNA complex signal Z-score relative to positive (Bi-TNF, DMSO) controls (Z-score (SD units of positive control)); higher = more complex signal). Settings: screen stage: primary screen; compound concentration: 25 nM.

SMILES | AlphaScreen HuR-RNA complex signal Z-score
COc1ccccc1OCC(O)COC(N)=O (stereo not drawn) | 2.2
Nc1c2c(nc3ccccc13)CCCC2O (stereo not drawn) | 1.21
C=CCCCCCCCCC(=O)[O-].C=CCCCCCCCCC(=O)[O-].[Zn+2] | 1.37
O=c1cc(-c2ccccc2)oc2cccc(O)c12 | 2.31
CO/N=C(\C(=O)N[C@@H]1C(=O)N2C(C(=O)OC(C)OC(C)=O)=C(COC(N)=O)CS[C@H]12)c1ccco1 (stereo partly drawn) | 1.88
CN(C/C=C/C#CC(C)(C)C)Cc1cccc2ccccc12 | 0.922
Fc1ccc([C@@H]2CCNC[C@H]2COc2ccc3c(c2)OCO3)cc1 | 1.06
C=C1CCC2C(CC2(C)C)C(=O)CCC1O (stereo not drawn) | 1.15
NC(CO)C(=O)NNCc1ccc(O)c(O)c1O (stereo not drawn) | 0.378
CN(C)CCCN1c2ccccc2CCc2ccccc21 | -5.96
C[C@H]1COc2c(N3CCN(C)CC3)c(F)cc3c(=O)c(C(=O)O)cn1c23 | -8.73
O=C(NC1CCCCC1)NC1CCCCC1 | 4.12
CN1CCC(OC(c2ccccc2)c2ccccc2)CC1 | -1.91
O=C(Oc1cccc2cccnc12)c1ccccc1 | -0.953
C/C=C1\[C@H]2C=C(C)C[C@]1(N)c1ccc(=O)[nH]c1C2 | 1.71
C[N+](C)(C)CCO.[Cl-] | 0.0639
CC(C)=CCOc1cc2oc(=O)ccc2cc1O | 0.978
COc1cc(/C=C/C(=O)CC(=O)/C=C/c2ccc(O)c(OC)c2)ccc1O | 0.606
Cc1cc2nc3c(=O)[nH]c(=O)nc-3n(CC(O)C(O)C(O)COP(=O)(O)O)c2cc1C (stereo not drawn) | 0.935
NCC[C@H](O)C(=O)N[C@@H]1C[C@H](N)[C@@H](O[C@H]2O[C@H](CN)[C@@H](O)[C@H](O)[C@H]2O)[C@H](O)[C@H]1O[C@H]1O[C@H](CO)[C@@H](O)[C@H](N)[C@H]1O | 0.31
COc1ccc2c(c1)OC[C@@H](Cc1ccc(OC)c(OC)c1)[C@H]2O | 0.863
Cn1cnc([N+](=O)[O-])c1Sc1ncnc2[nH]cnc12 | 0.272
CC(C)C(=O)Nc1ccc([N+](=O)[O-])c(C(F)(F)F)c1 | 0.206
CC(=O)OCC[N+](C)(C)C | 0.412
CC(=O)O[C@H]1C[C@@H](OC(C)=O)C(C)(C)C2CC(=O)[C@]3(C)C(CC[C@@]4(C)[C@H](c5ccoc5)OC(=O)[C@H]5O[C@]543)[C@]21C (stereo partly drawn) | -4.91
CC(=O)O[C@@H]1CC2C(C)(C)C(=O)CC[C@]2(C)C2CC[C@]3(C)C(=CC(=O)O[C@H]3c3ccoc3)[C@@]21C (stereo partly drawn) | 2.58

SMILES | AlphaScreen HuR-RNA complex signal Z-score
O=C(O)c1nc2cc(Cl)c(Cl)cc2nc1O | 2.32
C[C@H](CCC(=O)O)[C@H]1CC[C@H]2[C@@H]3CC[C@@H]4C[C@H](O)CC[C@]4(C)[C@H]3CC[C@]12C | 1.07
O=C(O)CCCC[C@@H]1SC[C@@H]2NC(=O)N[C@@H]21 | 0.748
CC1COc2c(N3CCN(C)CC3)c(F)cc3c(=O)c(C(=O)O)cn1c23 (stereo not drawn) | 0.831
COc1ccc2c(c1)O[C@H]1c3ccc(OC)cc3OC[C@@H]21 | 3.4
CC(C)NCC(O)c1cc(O)cc(O)c1 (stereo not drawn) | 0.346
O=C(O)CN(CCN(CC(=O)O)CC(=O)O)CCN(CC(=O)O)CC(=O)O | -0.0536
COc1ccc(-c2cc(=O)c3c(OC)c(OC)c(OC)cc3o2)cc1OC | 2.37
O=C(/C=C/C=C/c1ccc2c(c1)OCO2)N1CCCCC1 | 0.798
CCC(=O)OCC(=O)[C@@]1(OC(=O)CC)[C@@H](C)C[C@H]2[C@@H]3CCC4=CC(=O)C=C[C@]4(C)[C@@]3(Cl)[C@@H](O)C[C@@]21C | 0.389
COc1ccc(-c2cc(=O)c3c(O)cc(OC)cc3o2)cc1 | -0.544
CC(C)=CCC/C(C)=C/CC/C(C)=C/CC/C(C)=C/CO | 0.771
CCN(CC)Cc1cc(Nc2ccnc3cc(Cl)ccc23)ccc1O | 0.315
OC[C@H]1O[C@@](CO)(O[C@H]2O[C@H](CO)[C@@H](O)[C@H](O)[C@H]2O)[C@@H](O[C@H]2O[C@H](CO)[C@@H](O)[C@H](O)[C@H]2O)[C@@H]1O | 1.7
O=C1CCC(N2C(=O)c3ccccc3C2=O)C(=O)N1 (stereo not drawn) | 1.08
CC1(C)C[C@@H]2C(=O)CC[C@H]3O[C@]3(C)CC[C@H]21 | 1.61
CCN(CC)CCNC(=O)COc1ccc(OC)cc1 | 0.132
CC(=O)OCC1=C(C(=O)O)N2C(=O)[C@@H](NC(=O)Cc3cccs3)[C@H]2SC1 | -3.77
CC(C)(C)NCC(O)c1ccc(O)c(CO)c1 (racemic) | 1.03
CCOc1ccc(NC(=O)CC(C)O)cc1 (stereo not drawn) | -1.2
COc1c(O)cc2oc3cc(O)c(CC=C(C)C)c(O)c3c(=O)c2c1CC=C(C)C [alpha-MANGOSTIN] | -0.329
C=CCCCCCCCCC(=O)O | -3.65
COC(=O)C[C@H]1C(C)(C)[C@@H](OC(C)=O)[C@@H]2CC3C4CC(=O)O[C@@H](c5ccoc5)[C@]4(C)CCC3[C@@]1(C)C2=O (stereo partly drawn) | 0.203
CC1(C)S[C@@H]2[C@H](NC(=O)Cc3ccccc3)C(=O)N2[C@H]1C(=O)O | 7.45
CCC(C)n1ncn(-c2ccc(N3CCN(c4ccc(OCC5COC(Cn6cncn6)(c6ccc(Cl)cc6Cl)O5)cc4)CC3)cc2)c1=O (stereo not drawn) | 1.91
COc1ccc(/C=C/C(=O)c2cc(O)ccc2O)cc1 | -0.67

Some of the entries so far, as a markdown table:

| SMILES | AlphaScreen HuR-RNA complex signal Z-score |
| --- | --- |
| CC(=O)OCC1=C(C(=O)O)N2C(=O)[C@@H](NC(=O)Cc3cccs3)[C@H]2SC1 | -3.77 |
| CC(C)(C)NCC(O)c1ccc(O)c(CO)c1 (racemic) | 1.03 |
| CCOc1ccc(NC(=O)CC(C)O)cc1 (stereo not drawn) | -1.2 |
| COc1c(O)cc2oc3cc(O)c(CC=C(C)C)c(O)c3c(=O)c2c1CC=C(C)C [alpha-MANGOSTIN] | -0.329 |

Next records

SMILES | AlphaScreen HuR-RNA complex signal Z-score
Cc1cccc(Nc2ccccc2C(=O)O)c1C | 0.665
C=CCSCC=C | 1.33
CC(N)C(=O)OC(C)(C)Cc1ccc(Cl)cc1 (stereo not drawn) | 1.26
O=C1c2ccccc2C(=O)C1(O)C1(O)C(=O)c2ccccc2C1=O | -2.01
CC[n+]1c(-c2ccccc2)c2cc(N)ccc2c2ccc(N)cc21 | 4.2
O=C1OC(CN2CCOCC2)CN1/N=C/c1ccc([N+](=O)[O-])o1 (stereo not drawn) | -0.91
C[n+]1ccccc1C=NO | 2.73
CNCCCN1c2ccccc2CCc2ccccc21 | -2.63
O=C(O)[C@]1(O)C[C@@H](O)[C@@H](O)[C@H](O)C1 | 0.0865
COC(=O)C1=C(C)NC(C)=C(C(=O)OCC(C)C)C1c1ccccc1[N+](=O)[O-] (stereo not drawn) | -2.02
O=c1cc(-c2ccc(O)cc2)oc2cc(O)ccc12 | -0.314
COC(=O)C1=C(C)NC(C)=C(C(=O)OCCN(C)Cc2ccccc2)C1c1cccc([N+](=O)[O-])c1 (stereo not drawn) | 1.03
CC(C)=CCc1c2c(c3occ(-c4ccc(O)cc4)c(=O)c3c1O)C=CC(C)(C)O2 | -2.83
Cc1ccccc1C(OCCN(C)C)c1ccccc1 (stereo not drawn) | 3.6
CC(=O)OC(C)(C)[C@@H]1Cc2cc3ccc(=O)oc3cc2O1 | 0.808
O=C1CCc2ccc(OCCCCN3CCN(c4cccc(Cl)c4Cl)CC3)cc2N1 | -0.222
CN(C)CCOC(c1ccc(Cl)cc1)c1ccccn1 (stereo not drawn) | 0.312
NC(=O)NC1NC(=O)NC1=O (stereo not drawn) | -0.673
C[C@@H]1CC[C@@]23CCC4(C)[C@@](C=CC5[C@@]6(C)CCC(=O)C(C)(C)C6CC[C@]54C)(OC2=O)C3[C@H]1C (stereo partly drawn) | 1.59
COc1c2ccoc2cc2oc(=O)ccc12 | 2.15
CCN(CC)CCOc1ccc(C(=C(Cl)c2ccccc2)c2ccccc2)cc1 | -6.23
CC1(C)CC[C@]2(C(=O)O)CC[C@]3(C)C(=CCC4[C@@]5(C)CC[C@@H](O)C(C)(C)C5CC[C@]43C)C2C1 (stereo partly drawn) | 1.95
CCCCNc1ccc(C(=O)OCCN(C)C)cc1 | 7.51
CN1CCOC(c2ccccc2)c2ccccc2C1 (stereo not drawn) | 0.964
N=C(N)NCCCCN | 0.988
CN1CCC(=C2c3ccccc3CCc3sccc32)CC1 | -0.0929

SMILES | AlphaScreen HuR-RNA complex signal Z-score
Cc1cnc(C(=O)NCCc2ccc(S(=O)(=O)NC(=O)NC3CCCCC3)cc2)cn1 | 1.8
C=C1C2CC[C@@]3(C)[C@H](c4ccoc4)OC(=O)C[C@]13O[C@H]1CC(=O)C(C)(C)[C@H](C(O)C(=O)OC)[C@@]21C (stereo partly drawn) | 0.727
CCc1ccc2c(O)c3c(cc2c1C(=O)OC)C(=O)c1c(O)ccc(O)c1C3=O | -4.97
CC(=O)O[C@H]1C[C@@H](OC(C)=O)C(C)(C)[C@@H]2C[C@@H](OC(C)=O)[C@@]3(C)C4=CC(=O)O[C@@H](c5ccoc5)[C@]4(C)CC[C@@H]3[C@@]12C | -0.0498
CC(O)(P(=O)(O)O)P(=O)(O)O | 1.49
CC(C)Cc1ccc(C(C)C(=O)O)cc1 (stereo not drawn) | -2.4
COC1=CC(=O)C=C(OC)C1=O | -4.9
COc1ccc(C(=O)c2ccccc2O)c(O)c1 | -3.1
COCCc1ccc(OCC(O)CNC(C)C)cc1 (stereo not drawn) | 2.56
CC1=C(C/C=C(\C)CCC[C@H](C)CCC[C@H](C)CCCC(C)C)C(=O)c2ccccc2C1=O | 0.649
O=c1c(O)c(-c2ccc(O)c(O)c2)oc2cc(O)cc(O)c12 | -1.42
O=C(O)C1(C(=O)O)CCC1.[NH2-].[NH2-].[Pt+2] | 0.45
CN[C@@H]1[C@H](O[C@H]2[C@H](O[C@H]3[C@H](O)[C@@H](O)[C@H](NC(=N)N)[C@@H](O)[C@@H]3NC(=N)N)O[C@@H](C)[C@]2(O)CO)O[C@@H](CO)[C@H](O)[C@H]1O | -5.94
NCc1ccc(S(N)(=O)=O)cc1 | 0.301
COc1cc2oc3cc(OC)c(OC)c(CC=C(C)C)c3c(=O)c2c(OC)c1CC=C(C)C | 0.435
CCc1oc2ccccc2c1C(=O)c1cc(Br)c(O)c(Br)c1 | 1.76
CC/C(=C(\c1ccccc1)c1ccc(OCCN(C)C)cc1)c1ccccc1 | 4.48
C#C[C@]1(O)CC[C@H]2[C@@H]3CCC4=C(CCC(=O)C4)[C@H]3CC[C@@]21C | 5.04
COc1cc(OC)c(-c2c(OC)cc(OC)cc2OC)c(OC)c1 | 2.36
CC(C)(C)NCC(O)c1cc(O)cc(O)c1 (stereo not drawn) | 6.83
COc1ccc2c(c1)O[C@@H]1COc3cc(OC)c(OC)cc3[C@@H]1C2=O | -0.584
CC[N+](CC)(CC)CCOc1cccc(OCC[N+](CC)(CC)CC)c1OCC[N+](CC)(CC)CC | -2.25
CCOC(=O)[N-]c1c[n+](N2CCOCC2)no1 | -0.274
CCOc1ccc(NC(C)=O)cc1 | -0.905
CN1CCC[C@@H]1CCO[C@](C)(c1ccccc1)c1ccc(Cl)cc1 | -5.43
